The target in this assay is anti-p53 monoclonal antibody PAb-421. Kind of assay: ELISA (FIG. 7), idiotypic binding.

No constants are given. Whether binding was seen depends on the method and setting. Some results given as binding are weak or reduced against the parent protein; the word gives no strength.

B1: monoclonal antibody IDI-1 (antibody, V domains shown)
VH: QVQLQQSGAELVRPGASVKLSCKASGYIFTSYWINWVRQRPGQGLEWIGNISPADSSTNYNQKFKDKATLTVDKSSTTAYMQLSRPTFEDSAVYYCAREEVRRRRDMDFWGQGTSVTVSS
VL: DIVITQDELSNPVTSGESVSISCRSRQSLLYKNGKTYLNWFLQRPGQSPQLLIYLMSIRASGVSDRFSGNGSGTDFTLEISRVRAEDVGVYYCQQLVEYPYTFGGGTKLEIKR
Turning to B1, the binding result is “binds”.

The values are drawn from patent US20060030524A1, “Treatment of systemic lupus erythematosus by down-regulating the autoimmune response to autoantigens” (Yeda Research and Development Co. Ltd., priority 1998, published 2006).
